According to publication PMC3507851:
These are yes or no findings as the source states them, for the method shown. Binding seen in cells or lysates may run through a third protein. Some results given as binding are weak or reduced against the parent protein; the word gives no strength.

Sequences of proteins named here, by UniProt entry; tags and fusion partners are left off. A change or cut given only in a name is not applied to a line headed by its entry.
UniProt Q60751: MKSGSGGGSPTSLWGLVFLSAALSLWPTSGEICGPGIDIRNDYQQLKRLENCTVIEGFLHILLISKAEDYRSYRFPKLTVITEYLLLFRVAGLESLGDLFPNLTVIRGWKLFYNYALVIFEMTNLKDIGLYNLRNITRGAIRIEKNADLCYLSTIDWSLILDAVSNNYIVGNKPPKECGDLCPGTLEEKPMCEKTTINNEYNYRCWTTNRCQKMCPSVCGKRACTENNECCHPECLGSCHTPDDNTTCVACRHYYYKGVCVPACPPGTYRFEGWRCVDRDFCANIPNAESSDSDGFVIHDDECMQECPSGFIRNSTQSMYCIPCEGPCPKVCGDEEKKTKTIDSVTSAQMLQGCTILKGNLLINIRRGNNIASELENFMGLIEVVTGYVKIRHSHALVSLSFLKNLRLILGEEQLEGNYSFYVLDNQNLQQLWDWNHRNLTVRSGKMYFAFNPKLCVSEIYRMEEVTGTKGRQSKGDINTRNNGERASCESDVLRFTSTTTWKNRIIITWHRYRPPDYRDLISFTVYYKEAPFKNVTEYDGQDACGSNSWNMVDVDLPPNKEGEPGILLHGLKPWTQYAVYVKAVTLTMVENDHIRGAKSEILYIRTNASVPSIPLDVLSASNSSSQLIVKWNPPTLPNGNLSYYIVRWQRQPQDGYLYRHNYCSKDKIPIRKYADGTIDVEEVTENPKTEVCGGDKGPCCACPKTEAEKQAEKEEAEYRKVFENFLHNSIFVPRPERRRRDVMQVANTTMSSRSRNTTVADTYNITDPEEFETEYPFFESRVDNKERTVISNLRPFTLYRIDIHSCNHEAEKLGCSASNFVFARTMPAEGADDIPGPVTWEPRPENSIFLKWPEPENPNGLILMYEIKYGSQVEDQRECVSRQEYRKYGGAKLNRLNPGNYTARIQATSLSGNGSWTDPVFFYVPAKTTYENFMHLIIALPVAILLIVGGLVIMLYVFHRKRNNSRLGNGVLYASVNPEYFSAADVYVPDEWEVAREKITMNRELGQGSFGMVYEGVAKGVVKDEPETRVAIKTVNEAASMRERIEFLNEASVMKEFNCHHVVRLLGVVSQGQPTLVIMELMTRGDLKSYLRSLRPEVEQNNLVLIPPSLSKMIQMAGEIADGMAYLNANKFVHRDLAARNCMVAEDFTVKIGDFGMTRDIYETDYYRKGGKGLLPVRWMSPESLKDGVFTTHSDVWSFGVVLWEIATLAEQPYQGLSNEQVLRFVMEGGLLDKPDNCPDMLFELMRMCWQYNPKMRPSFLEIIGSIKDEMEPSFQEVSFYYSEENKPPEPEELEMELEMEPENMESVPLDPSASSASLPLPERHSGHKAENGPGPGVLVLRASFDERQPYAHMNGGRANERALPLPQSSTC
UniProt P15208: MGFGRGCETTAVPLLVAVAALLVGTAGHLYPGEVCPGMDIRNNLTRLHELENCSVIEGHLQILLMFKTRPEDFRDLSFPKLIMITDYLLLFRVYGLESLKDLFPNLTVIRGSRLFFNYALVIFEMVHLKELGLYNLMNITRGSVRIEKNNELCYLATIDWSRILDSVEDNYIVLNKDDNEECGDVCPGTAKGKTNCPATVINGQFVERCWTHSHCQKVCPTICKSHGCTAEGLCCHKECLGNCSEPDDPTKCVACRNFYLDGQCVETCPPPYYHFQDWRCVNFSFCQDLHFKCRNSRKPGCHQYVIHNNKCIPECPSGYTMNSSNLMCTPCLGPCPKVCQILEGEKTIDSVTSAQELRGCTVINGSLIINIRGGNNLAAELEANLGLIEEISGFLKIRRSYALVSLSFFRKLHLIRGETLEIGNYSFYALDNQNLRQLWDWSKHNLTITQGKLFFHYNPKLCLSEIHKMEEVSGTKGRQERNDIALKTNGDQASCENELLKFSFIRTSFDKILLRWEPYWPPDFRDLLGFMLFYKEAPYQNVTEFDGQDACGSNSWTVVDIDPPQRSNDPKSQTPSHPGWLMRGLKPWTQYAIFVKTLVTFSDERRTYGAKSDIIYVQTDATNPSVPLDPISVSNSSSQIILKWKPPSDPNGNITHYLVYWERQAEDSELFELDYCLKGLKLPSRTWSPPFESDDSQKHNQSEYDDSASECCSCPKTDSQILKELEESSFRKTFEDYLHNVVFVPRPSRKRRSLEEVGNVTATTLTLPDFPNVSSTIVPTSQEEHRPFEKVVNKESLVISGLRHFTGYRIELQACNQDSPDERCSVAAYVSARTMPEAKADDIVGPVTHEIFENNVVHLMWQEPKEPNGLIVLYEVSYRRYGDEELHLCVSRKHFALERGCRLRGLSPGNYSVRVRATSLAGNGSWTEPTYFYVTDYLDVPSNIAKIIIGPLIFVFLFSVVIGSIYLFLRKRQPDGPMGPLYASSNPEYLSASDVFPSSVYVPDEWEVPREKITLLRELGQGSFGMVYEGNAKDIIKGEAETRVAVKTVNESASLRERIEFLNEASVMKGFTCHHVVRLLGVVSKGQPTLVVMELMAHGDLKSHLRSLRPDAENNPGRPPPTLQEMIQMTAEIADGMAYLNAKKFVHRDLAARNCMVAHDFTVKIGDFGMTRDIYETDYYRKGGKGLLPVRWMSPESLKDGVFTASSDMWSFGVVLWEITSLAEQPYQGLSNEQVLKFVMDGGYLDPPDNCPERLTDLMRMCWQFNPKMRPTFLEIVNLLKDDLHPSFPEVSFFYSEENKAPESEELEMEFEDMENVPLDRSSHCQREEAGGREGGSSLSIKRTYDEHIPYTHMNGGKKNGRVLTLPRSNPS

What was measured:
[1] = biological target: Insulin-like growth factor-1 receptor (mouse (endogenous in MES-13)) (UniProt Q60751); assay: co-IP; lysates (0.5 mg) of non-transfected, scrambled oligo (SC) or InsR shRNA transfected MES-13 cells; IP with anti-InsRα or anti-IGF-1Rα antibody, 4°C, 4 hours, protein G-Sepharose; immunoblot for IGF-1Rβ or InsRβ; supernatants of the immunoprecipitates also blotted for IGF-1Rβ (immunodepletion)
[2] = biological target: Insulin receptor (mouse (endogenous in MES-13)) (UniProt P15208); assay: as above

In the case of “Insulin receptor (from UniProt P15208 28-748; P15208 753-1372)”, the binding [1] was “binds”.
“Insulin-like growth factor-1 receptor (from UniProt Q60751 31-737; Q60751 742-1373)” was tested, and the binding [2] was “binds” and the binding [1] was “binds”.
